Data as given in paper PMC9027016.
No constants are given. Whether binding was seen depends on the method and setting. In cells and extracts the contact can be indirect. Binding can be weak; no strength is given.

Amino acid sequences for entries named in this document (tags omitted). Residues count along the entry.
UniProt P55066, residues 23-1268: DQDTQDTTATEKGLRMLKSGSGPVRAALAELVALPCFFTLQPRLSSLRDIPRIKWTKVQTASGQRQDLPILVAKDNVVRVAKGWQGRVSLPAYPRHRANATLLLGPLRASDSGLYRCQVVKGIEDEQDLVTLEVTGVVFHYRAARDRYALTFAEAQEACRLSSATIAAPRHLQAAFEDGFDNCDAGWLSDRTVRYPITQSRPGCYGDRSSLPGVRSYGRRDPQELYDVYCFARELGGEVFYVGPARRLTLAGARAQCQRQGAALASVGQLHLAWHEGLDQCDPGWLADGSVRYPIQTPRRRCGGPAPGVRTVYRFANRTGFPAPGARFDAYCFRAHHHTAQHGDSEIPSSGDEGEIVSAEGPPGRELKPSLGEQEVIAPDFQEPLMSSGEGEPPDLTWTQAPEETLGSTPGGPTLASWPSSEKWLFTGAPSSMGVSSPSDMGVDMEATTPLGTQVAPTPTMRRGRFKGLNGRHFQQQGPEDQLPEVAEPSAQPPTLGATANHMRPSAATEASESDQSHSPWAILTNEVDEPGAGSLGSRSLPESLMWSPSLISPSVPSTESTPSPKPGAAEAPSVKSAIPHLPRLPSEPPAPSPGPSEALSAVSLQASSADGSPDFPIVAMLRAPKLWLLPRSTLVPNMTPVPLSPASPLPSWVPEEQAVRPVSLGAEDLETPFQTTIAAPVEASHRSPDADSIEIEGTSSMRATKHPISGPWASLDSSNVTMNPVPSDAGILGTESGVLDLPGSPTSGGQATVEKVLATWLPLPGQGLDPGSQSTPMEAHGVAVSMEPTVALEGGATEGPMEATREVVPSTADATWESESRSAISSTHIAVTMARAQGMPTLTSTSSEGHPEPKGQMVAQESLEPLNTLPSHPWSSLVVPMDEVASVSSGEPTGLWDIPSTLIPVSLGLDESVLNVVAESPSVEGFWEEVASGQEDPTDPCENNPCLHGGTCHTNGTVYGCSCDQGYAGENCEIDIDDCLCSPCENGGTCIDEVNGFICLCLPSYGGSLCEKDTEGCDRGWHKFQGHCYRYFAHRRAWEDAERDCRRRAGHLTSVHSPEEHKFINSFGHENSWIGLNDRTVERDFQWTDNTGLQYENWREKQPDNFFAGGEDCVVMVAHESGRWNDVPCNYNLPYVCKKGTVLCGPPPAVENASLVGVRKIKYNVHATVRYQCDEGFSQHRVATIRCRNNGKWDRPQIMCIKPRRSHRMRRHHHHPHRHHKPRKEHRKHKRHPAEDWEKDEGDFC
UniProt Q61282, residues 20-2132: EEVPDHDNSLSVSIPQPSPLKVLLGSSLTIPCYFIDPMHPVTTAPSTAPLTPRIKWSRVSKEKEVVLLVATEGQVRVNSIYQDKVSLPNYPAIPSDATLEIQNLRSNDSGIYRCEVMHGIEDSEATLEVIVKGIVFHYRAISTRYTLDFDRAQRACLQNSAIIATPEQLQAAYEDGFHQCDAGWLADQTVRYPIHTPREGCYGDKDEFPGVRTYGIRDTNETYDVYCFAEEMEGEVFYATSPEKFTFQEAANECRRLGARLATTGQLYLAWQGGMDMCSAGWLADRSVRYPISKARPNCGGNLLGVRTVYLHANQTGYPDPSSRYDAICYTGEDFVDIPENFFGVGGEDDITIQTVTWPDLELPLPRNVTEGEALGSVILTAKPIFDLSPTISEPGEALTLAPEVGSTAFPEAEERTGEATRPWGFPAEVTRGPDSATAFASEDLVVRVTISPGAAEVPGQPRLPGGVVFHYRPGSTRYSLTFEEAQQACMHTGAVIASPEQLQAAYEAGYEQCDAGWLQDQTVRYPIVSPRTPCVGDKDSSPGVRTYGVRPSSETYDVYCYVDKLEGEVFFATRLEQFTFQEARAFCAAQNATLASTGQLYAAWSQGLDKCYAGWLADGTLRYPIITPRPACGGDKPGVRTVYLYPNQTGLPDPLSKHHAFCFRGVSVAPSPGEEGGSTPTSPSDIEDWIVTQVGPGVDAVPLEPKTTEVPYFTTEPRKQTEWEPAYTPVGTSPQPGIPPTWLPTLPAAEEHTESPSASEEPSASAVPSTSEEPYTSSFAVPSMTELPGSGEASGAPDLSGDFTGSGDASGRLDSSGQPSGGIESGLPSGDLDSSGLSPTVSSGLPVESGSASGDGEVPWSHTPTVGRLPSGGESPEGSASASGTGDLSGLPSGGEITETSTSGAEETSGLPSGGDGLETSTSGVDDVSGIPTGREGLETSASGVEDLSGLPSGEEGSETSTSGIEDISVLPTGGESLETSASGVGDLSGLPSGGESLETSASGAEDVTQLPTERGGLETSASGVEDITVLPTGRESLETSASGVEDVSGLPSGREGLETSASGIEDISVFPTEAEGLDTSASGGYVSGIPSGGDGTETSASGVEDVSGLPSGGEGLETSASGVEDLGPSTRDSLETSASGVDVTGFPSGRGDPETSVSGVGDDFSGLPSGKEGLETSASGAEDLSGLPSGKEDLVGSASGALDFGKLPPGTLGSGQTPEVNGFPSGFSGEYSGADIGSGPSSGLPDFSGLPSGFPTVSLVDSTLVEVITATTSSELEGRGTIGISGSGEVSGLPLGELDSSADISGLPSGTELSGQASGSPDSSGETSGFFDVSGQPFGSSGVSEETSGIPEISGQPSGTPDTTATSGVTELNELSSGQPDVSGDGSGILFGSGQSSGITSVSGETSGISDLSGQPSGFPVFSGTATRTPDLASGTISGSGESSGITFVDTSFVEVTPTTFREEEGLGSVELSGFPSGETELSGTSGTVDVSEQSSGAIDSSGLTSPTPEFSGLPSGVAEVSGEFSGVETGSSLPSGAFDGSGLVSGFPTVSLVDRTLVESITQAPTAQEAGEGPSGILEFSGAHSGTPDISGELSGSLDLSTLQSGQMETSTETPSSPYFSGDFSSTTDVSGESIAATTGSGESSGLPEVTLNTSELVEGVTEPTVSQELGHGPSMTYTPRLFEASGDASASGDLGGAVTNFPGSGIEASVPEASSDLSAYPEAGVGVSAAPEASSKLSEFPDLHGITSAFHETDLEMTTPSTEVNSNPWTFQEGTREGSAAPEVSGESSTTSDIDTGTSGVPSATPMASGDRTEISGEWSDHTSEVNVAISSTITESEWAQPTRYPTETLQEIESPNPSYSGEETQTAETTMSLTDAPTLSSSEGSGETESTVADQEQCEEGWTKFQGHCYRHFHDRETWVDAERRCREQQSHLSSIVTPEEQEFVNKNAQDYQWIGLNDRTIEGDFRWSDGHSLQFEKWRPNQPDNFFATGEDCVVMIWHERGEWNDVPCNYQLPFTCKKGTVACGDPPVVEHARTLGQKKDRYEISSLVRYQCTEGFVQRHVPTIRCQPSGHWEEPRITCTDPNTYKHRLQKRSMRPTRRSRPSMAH
UniProt Q61361, residues 23-883: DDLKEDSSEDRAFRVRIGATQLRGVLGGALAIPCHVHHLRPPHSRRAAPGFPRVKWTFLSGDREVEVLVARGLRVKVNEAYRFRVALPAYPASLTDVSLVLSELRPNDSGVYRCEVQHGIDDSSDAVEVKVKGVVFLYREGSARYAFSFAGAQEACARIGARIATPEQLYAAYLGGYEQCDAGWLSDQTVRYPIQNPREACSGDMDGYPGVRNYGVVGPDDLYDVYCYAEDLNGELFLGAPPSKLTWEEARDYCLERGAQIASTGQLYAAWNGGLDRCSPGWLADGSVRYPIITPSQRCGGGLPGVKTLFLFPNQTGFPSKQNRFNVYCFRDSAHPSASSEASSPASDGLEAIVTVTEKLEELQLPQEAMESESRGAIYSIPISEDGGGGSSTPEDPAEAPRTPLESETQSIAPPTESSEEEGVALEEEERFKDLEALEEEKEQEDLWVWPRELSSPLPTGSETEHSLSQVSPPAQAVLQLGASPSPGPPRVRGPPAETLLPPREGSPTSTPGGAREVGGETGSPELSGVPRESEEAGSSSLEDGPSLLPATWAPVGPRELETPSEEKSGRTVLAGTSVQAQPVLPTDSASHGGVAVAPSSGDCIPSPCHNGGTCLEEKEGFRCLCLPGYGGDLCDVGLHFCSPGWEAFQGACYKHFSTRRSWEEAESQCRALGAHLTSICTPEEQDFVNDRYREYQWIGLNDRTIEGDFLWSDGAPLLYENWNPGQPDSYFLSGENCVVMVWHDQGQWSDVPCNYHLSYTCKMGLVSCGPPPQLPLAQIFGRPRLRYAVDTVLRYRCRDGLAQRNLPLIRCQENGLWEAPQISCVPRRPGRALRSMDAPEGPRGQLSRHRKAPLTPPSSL

Legend:
Assay in all cases: co-IP; capture antibodies against aggrecan, brevican, neurocan or HAPLN1 on Dynabeads Protein A and G; 500 µg brain homogenate of C57BL/6J mice (0.5% Triton X-100 extract) overnight at 4 °C; eluate blotted with pan tau antibody; Mapt KO homogenate as negative control
[1] = target: neurocan (mouse (endogenous in C57BL/6J brain)) (UniProt P55066)
[2] = target: T1, hyaluronan and proteoglycan link protein 1 (HAPLN1) (mouse (endogenous in C57BL/6J brain)) (UniProt Q9QUP5)
T1 sequence: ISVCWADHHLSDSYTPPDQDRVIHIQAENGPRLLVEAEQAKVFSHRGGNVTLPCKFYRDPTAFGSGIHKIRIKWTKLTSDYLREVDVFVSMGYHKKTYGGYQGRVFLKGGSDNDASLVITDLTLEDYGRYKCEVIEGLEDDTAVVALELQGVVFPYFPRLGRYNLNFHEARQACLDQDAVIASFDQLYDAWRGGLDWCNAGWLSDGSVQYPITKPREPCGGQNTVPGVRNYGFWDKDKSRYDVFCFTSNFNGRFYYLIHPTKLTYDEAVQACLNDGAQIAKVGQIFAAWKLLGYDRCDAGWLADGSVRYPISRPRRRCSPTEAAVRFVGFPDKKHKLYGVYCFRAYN

[3] = target: aggrecan (mouse (endogenous in C57BL/6J brain)) (UniProt Q61282)
[4] = target: brevican (mouse (endogenous in C57BL/6J brain)) (UniProt Q61361)

Measured: binding

tau protein (endogenous murine tau) (from UniProt P10637-2)
binds: all assays above
